From patent US8981047B2 (Indiana University Research and Technology Corporation, priority 2007, dated 2015)

Legend:
[1] = solid-phase peptide synthesis
[2] = solid-phase peptide synthesis; conditions: whole synthesis
[3] = Fmoc solid-phase peptide synthesis; Rink MBHA amide resin; HBTU (FastBoc single coupling); DIC/HOBT (Fmoc); BEPBT/DEPBT for PLA; conditions: whole synthesis, scale 0.1 mmole
[4] = whole synthesis, analytical HPLC (Zorbax C8, 214 nm), MALDI or ESI MS, scale of the general procedure 0.2 mmole (Boc), 0.1 mmole (Fmoc)

Substance: Glucagon Cys^29 Mal-PEG-5K
- final HPLC purity ([1]; conjugation step, 214 nm): greater than 95%

Substance: H2N-Phe-Thr-Ser-homoCys(SO3H)-Tyr-Ser-Lys-Tyr-Leu-Asp-Ser-Arg-Arg-Ala-Gln-Asp-Phe-Val-Gln-Trp-Leu-Met-Asn-Thr-NH2
- isolated mass ([2]; scale 0.05 mmole): 15˜20 mg
- final HPLC purity [1, 4]: 95%
- isolated yield ([1]; whole synthesis, totally, scale of the general procedure 0.2 mmole (Boc), 0.1 mmole (Fmoc)): 10˜15%

Substance: Glucagon Cys^24 Mal-PEG-20K
- final HPLC purity ([1]; conjugation step, analytical HPLC (Zorbax C8, 214 nm), MALDI or ESI MS): ˜90%

Substance: Glucagon Cys^17 Mal-PEG-5K
- final HPLC purity ([1]; conjugation step, 214 nm): approx. 90%

Substance: HO-PLA-Thr-Ser-Glu-Tyr-Ser-Lys-Tyr-Leu-Asp-Ser-Arg-Arg-Ala-Gln-Asp-Phe-Val-Gln-Trp-Leu-Met-Asn-Thr-NH2
- isolated mass ([2]; scale 0.1 mmole): 25˜40 mg
- isolated yield ([2]; totally, scale of the general procedure 0.2 mmole (Boc), 0.1 mmole (Fmoc)): 10˜15%
- final HPLC purity [1, 4]: 95%
- crude mass [3]: 200˜250 mg
